# According to PubChem BioAssay AID588590 (National Center for Advancing Translational Sciences (NCATS), 2011):
# Protein sequences, listed by entry. Tags and fused reporters are not part of them. Lines headed by an entry give the natural chain unless they say otherwise; changes in a name come on top.
# UniProt Q9UNA4: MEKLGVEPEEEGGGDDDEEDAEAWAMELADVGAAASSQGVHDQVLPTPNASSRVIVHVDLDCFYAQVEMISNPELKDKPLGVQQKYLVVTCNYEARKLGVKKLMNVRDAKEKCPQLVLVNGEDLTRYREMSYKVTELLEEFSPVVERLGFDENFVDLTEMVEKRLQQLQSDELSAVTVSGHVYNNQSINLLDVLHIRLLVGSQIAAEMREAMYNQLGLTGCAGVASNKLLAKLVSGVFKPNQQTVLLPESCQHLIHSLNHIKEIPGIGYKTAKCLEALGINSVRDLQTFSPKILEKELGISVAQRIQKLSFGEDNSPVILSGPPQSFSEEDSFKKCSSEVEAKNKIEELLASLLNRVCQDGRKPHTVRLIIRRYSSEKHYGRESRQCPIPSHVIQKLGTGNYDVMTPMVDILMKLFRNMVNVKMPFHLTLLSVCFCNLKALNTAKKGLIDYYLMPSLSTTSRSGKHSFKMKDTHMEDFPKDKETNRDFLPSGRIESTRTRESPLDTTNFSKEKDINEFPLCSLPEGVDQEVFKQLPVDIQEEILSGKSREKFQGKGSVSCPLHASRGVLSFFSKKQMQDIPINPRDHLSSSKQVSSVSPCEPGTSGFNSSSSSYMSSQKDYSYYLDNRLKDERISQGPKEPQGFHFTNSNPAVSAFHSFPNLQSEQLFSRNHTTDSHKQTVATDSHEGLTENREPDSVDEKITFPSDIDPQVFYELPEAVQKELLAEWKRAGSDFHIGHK
# The campaign covered roughly 390,000 compounds. About 4,000 (1%) were called active. Inconclusive results, whose numbers are uncertain, are shown with a selection of clear calls. The call rests on the fitted dose curve; in most records, active means well fitted inhibition curve with a large enough effect; inconclusive means small, poorly fitted or top-dose-only effect, or another doubt; inactive means no such curve, though single readings can be large or run the other way. Potencies of inconclusive entries are doubtful fits and often do not repeat.
# Biological target: DNA polymerase iota (Homo sapiens) (UniProt Q9UNA4)
# Test: qHTS for Inhibitors of Polymerase Iota
# Details: Pol iota fluorescent replication assay, 10 min; series mostly up to 115 µM; activity, negative = inhibition: at the top concentration
# How it was run: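 Fluorescent replication assay read twice, at 0 min and 10 min after adding 50 nM (final) substrate. Enzyme (10 nM) and compounds were first incubated 15 min at room temperature; enzyme-free buffer wells were negative controls.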
# Potency means the concentration at half of the fitted maximal effect.
Compound,Potency,"activity, negative = inhibition"
COc1cc(OC)c([N+](=O)[O-])cc1/C=N/NC(=O)c1ccncc1,"inconclusive: 14.1 µM [inhibitor, full curve, poor fit]",–
Cc1nc(SCc2ccc(O)c([N+](=O)[O-])c2)c([N+](=O)[O-])[nH]1,"inconclusive: 11.2 µM [inhibitor, partial curve, poor fit]",–
CCOc1ccccc1C1C(C(=O)Nc2ccccc2)=C(C)Nc2c(C(=O)Nc3ccc(F)cc3)cnn21 (configuration not stated),–,inactive: 6.61%
COC(=O)CCc1ccccc1S(=O)(=O)N(CCC(=O)OC)Cc1ccccc1,"inconclusive: 1.41 µM [inhibitor, full curve, poor fit]",–
CCc1ccccc1NC(=O)COc1ccc2oc(-c3ccc(OC)cc3)cc(=O)c2c1,"inconclusive: 3.16 µM [inhibitor, full curve, poor fit]",–
CC1=C(C(=O)Nc2ccccc2)C(c2ccc(C)o2)n2c(s/c(=C/c3ccccc3)c2=O)=N1 (configuration not stated),–,inactive: -1.91%
CN(Cc1ccccc1)S(=O)(=O)c1ccc2c(c1)n(C)c(=O)c(=O)n2C,"inconclusive: 79.4 µM [inhibitor, single point]",–
Cc1cccc(N2CCN(c3ccc(NC(=O)c4ccccc4)cc3C(=O)O)CC2C)c1 (configuration not stated),–,inactive: -6.75%
Cc1cccc(OC(=O)c2cc(-c3ccc4c(c3)OCCO4)on2)c1C,–,inactive: 7.75%
COc1cccc(CNC(=O)C(Cc2ccccc2)NS(=O)(=O)c2ccc3c(c2)oc(=O)n3C)c1 (configuration not stated),"inconclusive: 89.1 µM [inhibitor, single point]",–
Cc1ccc(C)n1-c1ccc(C(=O)Nc2ccccc2)cc1,"inconclusive: 79.4 µM [inhibitor, partial curve, poor fit]",–
CCOC(=O)C1C(=O)C=C(c2cccc(NS(C)(=O)=O)c2)CC1c1ccco1 (configuration not stated),"inconclusive: 31.6 µM [inhibitor, single point]",–
N#CC1=C(c2ccc(-c3ccccc3)cc2)COC1=O,"inconclusive: 79.4 µM [inhibitor, partial curve, poor fit]",–
Cc1ccc(Cc2cnc(N)s2)o1,"inconclusive: 10 µM [inhibitor, full curve, poor fit]",–
CCOc1ccccc1C(=O)Nc1ccc2nc3c(c(Nc4ccc(OC)c(OC)c4)c2c1)CCCC3,–,inactive: -15.5%
CC(C)(C)c1cc(-c2csc(Nc3ccccc3)[n+]2Cc2ccc(C(=O)O)cc2)cc(C(C)(C)C)c1O,"inconclusive: 22.4 µM [inhibitor, single point]",–
Cc1ccnc2c(Cl)cccc12,–,inactive: 34.7%
CNC(=O)c1cc(Oc2ccc(NC(=O)Nc3ccc(Cl)c(C(F)(F)F)c3)cc2)ccn1,"inconclusive: 39.8 µM [inhibitor, single point]",–
O=C(O)c1ccc(-c2ccc(/C=C3\NC(=O)N(Cc4ccc(Cl)cc4)C3=O)o2)cc1,active: 28.2 µM,–
N#CCc1nc2n(n1)Cc1ccccc1-2,"inconclusive: 89.1 µM [inhibitor, partial curve, poor fit]",–
CCC(=O)Nc1ccc(/C=C(\C(C)=O)C(=O)c2ccccc2)cc1,"inconclusive: 31.6 µM [inhibitor, partial curve, poor fit]",–

# No new results follow: two of the compounds above.
Compound,Potency,"activity, negative = inhibition"
Cc1ccc(Cc2cnc(N)s2)o1,"inconclusive: 10 µM [inhibitor, full curve, poor fit]",–
CCOc1ccccc1C(=O)Nc1ccc2nc3c(c(Nc4ccc(OC)c(OC)c4)c2c1)CCCC3,–,inactive: -15.5%

# More structures follow:

Compound,Potency,"activity, negative = inhibition"
CCOCCCNC(=O)C1(O)c2cc(Br)ccc2NC(=O)N1c1ccc(CC)cc1 (configuration not stated),"inconclusive: 39.8 µM [inhibitor, single point]",–
Cc1ccc(N=C2C(=O)Nc3ccccc32)c(C)c1,"inconclusive: 31.6 µM [inhibitor, full curve]",–
O=C(COc1ccccc1F)Nc1ccc2nc(SCC(=O)N3CCCC3)sc2c1,–,inactive: 41.1%
CC(NC(=O)CSc1nc(-c2cccc(Cl)c2)nc2cc(=O)[nH]n12)c1nc2ccccc2n1C (configuration not stated),"inconclusive: 100 µM [inhibitor, single point]",–
COc1ccc(-c2nc(N)n[nH]2)cc1OC,"inconclusive: 70.8 µM [inhibitor, partial curve, poor fit]",–
Cc1ccc(S(=O)(=O)N2CCN(Cc3ccc4c(c3)OCO4)CC2)cc1,"inconclusive: 89.1 µM [inhibitor, single point]",–
CCc1ccc(-c2cc(C)no2)cc1S(=O)(=O)Nc1cc(OC)c(OC)c(OC)c1,–,inactive: -12.5%
O=C(NCc1ccco1)c1nn2c(C(F)(F)F)cc(-c3cccs3)nc2c1Br,–,inactive: 5.06%
Cc1ccc(CNc2ncnc3onc(C)c23)cc1,–,inactive: 24.8%
O=C(C1=C(O)C(=O)N(Cc2ccco2)C1c1cccc([N+](=O)[O-])c1)c1ccco1 (configuration not stated),"inconclusive: 14.1 µM [inhibitor, full curve, poor fit]",–
COc1cc(CNCc2ccccc2C(F)(F)F)cc(OC)c1,"inconclusive: 12.6 µM [inhibitor, partial curve, poor fit]",–
CCOc1cc(C(=O)NCc2nc(-c3cccc(C)c3)no2)cc(OCC)c1OCC,–,inactive: -6.76%
COC(=O)c1ccccc1NC(=O)c1cc(CN2CCOCC2)on1,–,inactive: 25.4%
COc1cc2c(cc1OC)C(COc1ccc(F)cc1)N(C(=O)Cc1ccccc1)CC2 (configuration not stated),"inconclusive: 89.1 µM [inhibitor, single point]",–
COc1cc(C(=O)Nc2ccc(-c3nc4ccccc4o3)c(O)c2)cc(OC)c1OC,"inconclusive: 89.1 µM [inhibitor, single point]",–
Oc1ccc(-n2nnnc2SCc2c(F)cccc2Cl)cc1,"inconclusive: 79.4 µM [inhibitor, partial curve]",–
Cc1cc(NS(=O)(=O)c2ccc(NC(=O)c3cnc4sccn4c3=O)cc2)nc(C)n1,"inconclusive: 28.2 µM [inhibitor, partial curve, poor fit]",–
Cc1c(C(=O)NN)sc(-c2ccccc2)c1C#N,"inconclusive: 100 µM [inhibitor, single point]",–
Cc1ccc(Cl)c2c1=NC(=O)C=2c1[nH]c(=S)[nH]c1O,"inconclusive: 20 µM [inhibitor, partial curve, poor fit]",–
CCOC(=O)N1CCC(=NNC(=O)c2cc3ccccc3cc2O)CC1,"inconclusive: 22.4 µM [inhibitor, partial curve, poor fit]",–
CCN(CC)S(=O)(=O)c1cc(NC(=O)CN2C(=O)NC3(CCCc4ccccc43)C2=O)ccc1C (configuration not stated),"inconclusive: 28.2 µM [inhibitor, partial curve, poor fit]",–
